# From publication PMC5740175
# Legend:
# [1] = target: T1, IRP1 (iron regulatory protein 1) (UniProt P21399); experiment: EMSA; settings: direct, minimal binding, reduction of almost 95%, mean of 4, heparin; 25 mM Tris/HCl pH 7.4, 40 mM KCl, 1% Triton X-100, protease inhibitor (EDTA-free); 200 ng IRP1, 100 ng labeled probe; 15 min room temperature, then 50 ng heparin 10 min; recombinant protein; probe letters rebuilt from the primers and the genome; part of a longer molecule
# T1 sequence (looked up, limits assumed): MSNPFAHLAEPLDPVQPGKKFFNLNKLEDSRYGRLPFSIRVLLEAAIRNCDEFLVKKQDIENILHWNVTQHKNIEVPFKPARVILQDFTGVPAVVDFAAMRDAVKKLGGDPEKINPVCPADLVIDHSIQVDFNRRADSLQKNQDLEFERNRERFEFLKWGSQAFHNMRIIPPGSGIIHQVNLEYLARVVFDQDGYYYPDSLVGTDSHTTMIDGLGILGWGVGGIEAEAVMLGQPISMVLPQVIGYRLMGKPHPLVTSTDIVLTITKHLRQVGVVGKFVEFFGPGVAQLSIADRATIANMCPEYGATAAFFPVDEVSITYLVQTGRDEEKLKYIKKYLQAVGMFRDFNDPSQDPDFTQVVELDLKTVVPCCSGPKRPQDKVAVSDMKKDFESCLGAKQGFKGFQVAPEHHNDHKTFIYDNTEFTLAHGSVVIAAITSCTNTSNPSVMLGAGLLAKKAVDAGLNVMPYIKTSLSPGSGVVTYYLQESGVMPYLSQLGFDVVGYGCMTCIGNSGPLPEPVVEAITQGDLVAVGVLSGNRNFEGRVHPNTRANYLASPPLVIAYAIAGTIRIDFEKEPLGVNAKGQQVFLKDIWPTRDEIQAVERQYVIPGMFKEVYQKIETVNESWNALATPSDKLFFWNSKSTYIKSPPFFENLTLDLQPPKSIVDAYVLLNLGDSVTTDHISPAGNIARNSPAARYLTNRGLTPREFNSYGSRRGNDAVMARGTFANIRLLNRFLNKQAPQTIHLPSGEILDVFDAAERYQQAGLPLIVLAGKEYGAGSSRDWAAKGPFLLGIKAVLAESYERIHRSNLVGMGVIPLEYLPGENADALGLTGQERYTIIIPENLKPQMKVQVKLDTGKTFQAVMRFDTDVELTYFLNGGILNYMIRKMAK
# [2] = target: T1, IRP1 (iron regulatory protein 1); experiment: competition EMSA; settings: no significant competition at 80-fold excess against labeled WT probe, no Kd could be fitted, heparin; 25 mM Tris/HCl pH 7.4, 40 mM KCl, 1% Triton X-100, protease inhibitor (EDTA-free); 200 ng IRP1, 100 ng labeled probe; 15 min room temperature, then 50 ng heparin 10 min; recombinant protein; probe letters rebuilt from the primers and the genome; part of a longer molecule
sequence,measurement,setting,value
CGGUCCCGCGGGUCUGUCUCUUGCUUCAAAGUGUUUGGACGGAACAGAUCCGGGGACU [FTL 5' IRE +39ΔC],binding signal (% of WT bound),[1],5
same,binding result,[2],no binding

# For at least one entry, the source does not settle the construct or the ends of the probe. For some assays here: No signal at the amounts used counts as a negative. Tags and fusion partners may be left off the protein sequences shown.
